# Hit rate of the full screen: of about 300,000 compounds, about 3,700 (1.2%) were called active. The inconclusive results got no clear call from the source; some entries with a clear call stand among them for comparison. Calls follow the shape of the full dose curve; tested in HEK293 cells. Potencies beside an inconclusive call are fits to weak or partial responses and may not hold up.
# Experiment: qHTS for Inhibitors of binding or entry into cells for Lassa Virus; also: nearly all actives have a fitted effect of over 50% in size
# Conditions: Lassa virus pseudotype entry inhibition, cell reporter; activity change, negative = inhibition: at 37.9 µM (top of the series) unless noted
# % is scaled to controls: 0 for no effect and ±100 for the full control effect; potency is read from the fitted curve at half-maximal effect.
Compound,"activity change, negative = inhibition",Potency
Cc1sc(NC(=O)c2ccccc2F)c(CN2CCCCC2C)c1C (stereo unspecified),inactive: -6.1%,
COc1ccc(-c2noc(-c3ccc(Cl)cc3[N+](=O)[O-])n2)cc1OC,,"inconclusive: 6.51 µM [activator, single point]"
Cc1c([N+](=O)[O-])c(C(=O)Nc2ccc3c(c2)OCCO3)nn1C,inactive: 12.6%,
Cc1ccc(CNC(=O)CCCn2c(=O)c3ccccc3n(Cc3ccccc3C)c2=O)cc1,inactive: -20.5% [at 46.1 µM],
CC(NC(=O)c1ccc2c(c1)N(Cc1ccc(Cl)cc1)C(=O)c1ccccc1S2=O)c1ccccc1 (stereo unspecified),inactive: 1.18% [at 46.1 µM],
Cc1ccc(-c2csc(N/N=C/c3ccco3)n2)c(C)c1,,active: 3.26 µM
Cc1cccc(C)c1NC(=O)CCCN1C(=O)CCn2nc(-c3cn(C)c4ccccc34)cc21,inactive: 23.3% [at 46.1 µM],
Cc1sc2ncnc(N3CCN(Cc4ccccc4)CC3)c2c1-c1ccccc1,,"inconclusive: 11.2 µM [inhibitor, partial curve, poor fit]"
COc1ccc(CN2CCC(C(=O)N3CCN(c4ccccc4F)CC3)CC2)cc1OC,inactive: 2.45%,
COc1cccc(NC(=O)C2CCN(c3nc4ccccc4nc3C(F)(F)F)CC2)c1,,"inconclusive: 2.51 µM [inhibitor, partial curve, poor fit]"
Cn1ccc(C(=O)Oc2ccc(C(=O)Nc3ccc(F)cc3F)cc2)n1,inactive: 24.2%,
CC(C)CCNC(=O)C1(O)c2ccccc2NC(=O)N1c1ccc(Cl)cc1 (stereo unspecified),inactive: -5.28% [at 46.1 µM],
Cn1c(CNC(=O)CSc2nc(-c3cccc(Cl)c3)nc3cc(=O)[nH]n23)nc2ccccc21,,"inconclusive: 1.78 µM [activator, partial curve, poor fit]"
CCN(CC)S(=O)(=O)c1csc(C(=O)NCc2ccccc2)c1,,"inconclusive: 29.1 µM [inhibitor, single point]"
CCn1c(=O)cc(OCC(=O)N2CCN(c3ccccc3OC)CC2)c2ccccc21,,"inconclusive: 8.91 µM [inhibitor, partial curve]"
Cc1ccccc1Nc1nc(N)nc(CSc2ccccc2)n1,,"inconclusive: 0.366 µM [activator, partial curve, poor fit]"
O=C(Nc1ccc(Cl)cc1)c1cncs1,,"inconclusive: 1.12 µM [inhibitor, single point]"
Cc1cc(C)n2c(Nc3ccccc3)c(-c3ccccc3)nc2n1,inactive: -10.4% [at 46.1 µM],
Cc1cccc(Cn2cnc3c(cnn3-c3ccc(Cl)cc3)c2=O)c1,,"inconclusive: 4.47 µM [inhibitor, partial curve, poor fit]"
CCOc1ccc(CNC(=O)C2Cc3ccccc3N2C(=O)CC)cc1 (stereo unspecified),inactive: -21.3% [at 46.1 µM],
CC(C)(C)CC(C)(C)Nc1c(-c2ccc(O)cc2)nc2cnccn12,,"inconclusive: 25.9 µM [inhibitor, partial curve, poor fit]"

# In a second layout: entries from further up
Compound | activity change, negative = inhibition | Potency
CC(NC(=O)c1ccc2c(c1)N(Cc1ccc(Cl)cc1)C(=O)c1ccccc1S2=O)c1ccccc1 (stereo unspecified) | inactive: 1.18% [at 46.1 µM] | 
Cc1ccc(-c2csc(N/N=C/c3ccco3)n2)c(C)c1 |  | active: 3.26 µM

# — PubChem BioAssay AID540256 (National Center for Advancing Translational Sciences (NCATS), 2011)
